Here are results for two molecules from PMC9246715, “Bacillus subtilis biofilm matrix components target seed oil bodies to promote growth and anti-fungal resistance in melon” (Nature Microbiology, 2022).

These are yes or no findings as the source states them, for the method shown. A result given as binding can be weak or reduced; the word gives no strength. For some assays here: Binding seen in cells or lysates may run through a third protein.

The target in assay [1] is T1, amyloid protein TasA (B. subtilis) (UniProt P54507).
T1 sequence: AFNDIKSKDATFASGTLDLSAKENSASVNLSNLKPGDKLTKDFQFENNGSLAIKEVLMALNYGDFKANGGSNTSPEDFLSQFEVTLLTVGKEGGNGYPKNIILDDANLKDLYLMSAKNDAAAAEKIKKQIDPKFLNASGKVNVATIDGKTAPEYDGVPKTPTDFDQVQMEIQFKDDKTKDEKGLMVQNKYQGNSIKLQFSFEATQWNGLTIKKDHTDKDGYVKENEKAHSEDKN
The assay can be described thus: pull-down; purified TasA (bait, 50 µM) incubated with melon seed protein extract at 4 °C overnight, then with nickel-loaded resin (Protino Ni-TED 2000) at 4 °C overnight; elution fractions on SDS-PAGE (CBB), co-eluting band identified by HPLC-ESI-MS/MS; control resin without bait; only the target purified.

For assay [2], the target named is oleosin 1 from Arabidopsis thaliana (Arabidopsis thaliana). The experiment in a line: far-Western, overlay or dot blot; purified proteins separated by SDS-PAGE, transferred to PVDF, renatured with decreasing guanidine HCl; membrane incubated with 10 µg purified TasA in protein-binding buffer (100 mM NaCl, 20 mM Tris pH 7.6) at 4 °C overnight; bound TasA detected with anti-TasA antibody; both purified.

With oleosin from melon seeds, the binding result in assay [1] is given as “binds”.

B1: amyloid protein TasA (natural protein, B. subtilis, UniProt P54507 28-261, looked up)
chain: T1 sequence
notes: TasA, amyloid protein of the extracellular matrix of Bacillus subtilis biofilms; also called purified TasA
With B1, in assay [2], the binding result is “binds”.
